# Results of single-concentration screens

By UniProt entry, the sequences of proteins in these tests, tags left out.
UniProt P9WPC5, whole entry: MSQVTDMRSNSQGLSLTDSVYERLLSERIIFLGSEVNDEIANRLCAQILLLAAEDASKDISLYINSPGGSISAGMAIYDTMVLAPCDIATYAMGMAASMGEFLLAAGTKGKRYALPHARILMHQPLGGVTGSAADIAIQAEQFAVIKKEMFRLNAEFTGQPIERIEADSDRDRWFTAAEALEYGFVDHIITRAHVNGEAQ
UniProt P9WPC3, whole entry partner: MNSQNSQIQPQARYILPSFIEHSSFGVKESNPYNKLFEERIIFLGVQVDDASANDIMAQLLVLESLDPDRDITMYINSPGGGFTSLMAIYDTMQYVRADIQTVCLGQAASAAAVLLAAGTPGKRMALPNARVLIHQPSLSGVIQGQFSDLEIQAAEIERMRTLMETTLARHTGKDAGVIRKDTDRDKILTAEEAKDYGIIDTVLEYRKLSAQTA

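Protease assay of ClpP1P2, read by the AMC dye that it sets free. Target: ClpP1P2, Mycobacterium tuberculosis (UniProt P9WPC5 and UniProt P9WPC3). Concentration: 50 µM. Direction is inferred from only a few compounds that gave an IC50; most scored high, so higher reads as stronger inhibition. Most other retested compounds had strongly negative values. About 69,000 compounds were tested under these conditions; 0.015% (about 10) showed 50% or more at least once.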

Each number is a percent effect as filed. The record does not define 0% and 100%; most values in the screen are far below 50% and negative numbers occur (in some assays of this library far below -100). This is an unselected part of the compounds tested.

* c1cnc(N2CCO[C@H]3CN(Cc4csnn4)C[C@H]32)cn1 : 16.81%
* CS(=O)(=O)NCC1CCCN(C(=O)c2ccc(Cl)o2)C1 (stereo unspecified) : 5.597%
* CC(C)NC(=O)N1CCN(CC2CC2)CC2(CNC(=O)C2)C1 (stereo unspecified) : -7.206%
* COc1ccc(-c2noc(CN3CCN(c4cnccn4)CC3)n2)cc1 : -10.43%
* O=C(Cc1ccc(F)cc1)NCCNc1cc(N2CCCC2)cnn1 : -12.74%
* Cc1cccc(C2(CNC(=O)CO)CCCC2)c1 : -10.52%
* Cc1c[nH]c(CN(C)C(=O)c2ccc(CSc3nnc[nH]3)o2)n1 : -15.35%
* CCc1ccc(CNC(=O)NC(C)CN2CCOCC2)s1 (stereo unspecified) : -3.03%
* CCN1C(=O)CCCC12CCCN(C(=O)c1ccsc1)C2 (stereo unspecified) : 12.87%
* CC(=O)N1CCC2(CCCN2Cc2cnn(C)c2)CC1 : 7.323%
* CN(C)CCC(Nc1nc(N)nc2c1CCNCC2)c1ccccc1 (stereo unspecified) : -6.043%
* CN(C)C(=O)c1cccn1-c1ccc2c(c1)OCCO2 : -10.43%
* FC(F)(F)c1nc(NC2CCCC2)c2ccccc2n1 : -13.62%
* COc1ccccc1CC(=O)NC(C)c1nc2cccnc2n1C(C)C (stereo unspecified) : -0.2473%
* CN(C)c1ccc(C(=O)NCc2csc(Br)c2)cn1 : -26.49%
* O=C(NCc1nnc2n1CCCC2)N(Cc1ccccc1F)C1CC1 : -4.776%
* CCn1cc(C(=O)Nc2ccccc2C(=O)OC)cn1 : 22.65%
* CC(C)NC(=O)NC[C@H]1OC[C@@H](NCc2ccc(F)cc2)[C@@H]1O : -16.17%
* O=C(NCC1CCOCC1)[C@H]1C[C@@H]2CCN(Cc3ccccc3)C[C@H]2O1 : -18.43%
* O=C(NCc1cncc2c1CCN(CC1CCOC1)C2)c1ccco1 (stereo unspecified) : 12.81%
* Cc1noc(CCNC(=O)C2CSCN2C(=O)C2CCCC2)n1 (stereo unspecified) : -6.366%
* CCOC(=O)c1sc(NC(=O)C(C)C)c(C#N)c1C : 5.377%
* Cc1ccc([C@@H]2CN(S(=O)(=O)Cc3ccccc3)C[C@H]2N(C)C)cc1 : 8.491%
* Cn1cnn(Cc2ccccc2F)c1=O : -2.876%
* NCC1Cc2cccc(-c3nccc(N4CCC(O)CC4)n3)c2O1 (stereo unspecified) : 9.097%
* Cc1ccnc(OCC(=O)N2CCC(C(N)=O)CC2)n1 : -2.686%
* CC(C)N1CCC(CC(=O)N2CCC(C(O)c3nccn3C)CC2)CC1 (stereo unspecified) : -10.15%
* Cc1nc(CN2CCCC2Cn2cncn2)nc2ccccc12 (stereo unspecified) : -4.717%
* CN1CCN(Cc2cccnc2)C(=O)C12CCN(S(C)(=O)=O)CC2 : -3.513%

For reference, 3 entries once more:

- c1cnc(N2CCO[C@H]3CN(Cc4csnn4)C[C@H]32)cn1 : 16.81%
- CN(C)c1ccc(C(=O)NCc2csc(Br)c2)cn1 : -26.49%
- O=C(NCc1nnc2n1CCCC2)N(Cc1ccccc1F)C1CC1 : -4.776%

Source: ChEMBL document CHEMBL3988442, “University of Dundee, Small-Polar-MMV Screening Library” (2021).